Consider 67 sequences from PubChem BioAssay AID1347423 (Functional Genomics Laboratory (NCATS/FGL), 2020).

Out of some 52,000 sequences screened, about 210 (0.4%) were called active.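 The calls were made as follows: active = gene whose silencing raises cell survival under the drug, median off-target-corrected z-score across its silencing RNAs 2 or more; inactive = the rest.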 Some of the results follow.

The nature of this assay: Resistance to Poly (ADP-Ribose) Polymerase inhibitor: Gene Identification via Genome-wide siRNA Screen. The settings on record: mouse BRCA2 R2336H ES cells, olaparib, CellTiter-Glo viability; active compounds read high. In short, it runs like this:
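Mouse BRCA2 R2336H ES cells were reverse-transfected with siRNA (20 nM final), treated at 48 h with 500 nM olaparib, and read by CellTiter-Glo after 72 h. Scores: MAD-based z per siRNA, median per gene, seed off-target correction.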
For orientation: In ATP-based viability assays light output follows the ATP content of the culture.
As to GGAGUUCUGUGAAAUCUUCTT against BC017634, the z-score is inactive: 0.0241.

For the sequence GGGAAAGUCAUUCAUCAAGTT against Stc2, the z-score was inactive: 0.741.

As for “GGAUCCUGAACGAAAAAGGTT against 2410018M14Rik”, the z-score is inactive: 0.213.

Consider GGCUAUGGAGAAGCAGAUUTT against P140, for which the z-score is inactive: -2.44.

Turning to GGAAAAUAGUGGAAGCCUGTT against Apg3l, the z-score was inactive: 0.063.

Take GGUGUUGGAAGAGAUGCUGTT against Ap3m2: the z-score was inactive: -1.83.

For GGUUCCAUGAUAUCGGAACTT against Tbx15, the z-score was inactive: -0.352.

“GGAGAUAAAGUCUUAUCACTT against 9130017N09Rik”: the z-score was inactive: 0.803.

As to GGUCGAAAGUUGUUUGUCATT against Arr3, the z-score was inactive: -1.42.

For the sequence GGAAAAUGCUCACAUAGUGTT against Pak1ip1, the z-score was inactive: 0.932.

In the case of GGCCUGUUUGAACUCAUAGTT against Vrk3, the z-score was inactive: -0.443.

As to “GCGAACACGAUUCAUUUAGTT against 2400003N08Rik”, the z-score was inactive: 0.51.

Consider GCCAUGCUGACAAAGCUCATT against Hcn2, for which the z-score was inactive: -1.41.

As for GGGAAUGCAUAUUAUGCUATT against Dnajc7, the z-score is inactive: -0.873.

Take CCCUGCUUGAAUCUCUUCGTT against Tyk2: the z-score was inactive: 1.

Turning to GGCUGUAUGACUCAGCUCUTT against Olfr711, the z-score was inactive: -0.343.

Turning to GGACCAUGAGAAAUUUAAUTT against Nr2f1, the z-score is inactive: 0.529.

As for “GGAUAUAGCUCAACACUUUTT against 4732482E20Rik”, the z-score is inactive: 0.404.

GGAUGUAUGUUAAGAUUGATT against Olfr906: the z-score is inactive: -0.339.

Take GGGAUGAGUACAAGAAAAATT against AU022521: the z-score is inactive: -0.515.

As for GGGAAAAGAAAGUACCUACTT against Zcchc10, the z-score was inactive: -1.05.

Consider “CCCGAUUAGGUGUUGAUAUTT against 1700034J06Rik”, for which the z-score is inactive: -1.02.

For GGGAGUCCCAGCUUAGUAATT against Pou2f2, the z-score is inactive: -0.799.

Consider GCAUAUACUUGAUUACCGUTT against Olfr830, for which the z-score was inactive: 0.261.

For GGAGAACCAGAUCCUGAUCTT against P42pop, the z-score was inactive: 0.717.

Turning to GCGAAGAAGAACCAUCGAUTT against Tmem10, the z-score was inactive: -0.625.

Regarding GCACCAAGAAUUAUAUACATT against Usp8, the z-score was inactive: 2.44.

GCAGAUAGCCCACGUCAUUTT against Nfkb2: the z-score is inactive: -0.309.

CGGGCUAUCUGGAACUAUATT against Sesn1: the z-score is inactive: 0.0688.

As to CCAUCCAGAUUUAAUAACCTT against Dcbld1, the z-score is inactive: 0.153.

Take GCUGACACAAAACGCAGUCTT against Kcna4: the z-score is inactive: -1.66.

GGCUGUUUGCCAAAAAAAATT against Ppp1r16a: the z-score was inactive: 0.752.

Turning to GGCUGUCGUCAUUGAAGGATT against Ankrd27, the z-score was inactive: -0.611.

Consider CCCUGAUGACAGAAGAAUCTT against Tyms, for which the z-score is inactive: -0.811.

Regarding CGGCUGUGUGCAUUUAAAGTT against Bmpr2, the z-score is inactive: -0.00271.

As to CGGCGGAUCUAUGAAGUAGTT against Mrpl1, the z-score is inactive: -2.21.

As to GGUGUCCCAGAGUGUAUAATT against Olfr1499, the z-score was inactive: -2.67.

GGAGGUCUACCAUUUCACCTT against Cops4: the z-score was inactive: -0.436.

CCAUUGGAUUGGAACUGGATT against AW494914: the z-score was inactive: -0.555.

With GGCCUACCAGAGAUUUAGATT against Ptgfr, the z-score was inactive: -0.199.

Turning to GCUAAGUAACUCUUUUAGGTT against Clock, the z-score was inactive: -0.834.

As to GGCACUUCACAGACUUAGUTT against Selp, the z-score was inactive: 0.954.

With GGUUCUGGCUGGAAUCUACTT against Gna-rs1, the z-score was inactive: 0.759.

Take GGUUUUCUCACCAUUAUUGTT against Asb13: the z-score was inactive: 1.77.

Turning to CGAGUUUGAGUACCUGAAATT against Akt1, the z-score was inactive: -1.54.

GCUUAUUUCGCCUAUGUGGTT against Slc24a2: the z-score is inactive: 0.471.

Regarding CCCUGACCUAUUAAAAGAUTT against Cyp2b19, the z-score was inactive: -1.46.

Regarding GCGCAUGUACAACACUCUATT against Abcf3, the z-score was inactive: -0.183.

In the case of GGCCAUUUACUUGAAGAACTT against Lpin3, the z-score is inactive: -0.633.

As for “GGCCGAAGAAGUCUUCGAUTT against 2310039E09Rik”, the z-score is inactive: 0.19.

On to CCAAGUGAAGACACGAUUGTT against BB114266, for which the z-score is inactive: -1.8.

In the case of GGUGACCUCUCAGAGGUACTT against Kctd14, the z-score was inactive: -0.608.

Regarding GCGAUGAGACAGAUGUCGATT against Tcof1, the z-score was inactive: -0.378.

As for GCAACUUACUUGAUCUGAATT against Ap2b1, the z-score is inactive: -0.829.

Turning to GGCGAACAACUGGAACGCATT against Snap25, the z-score is inactive: -0.163.

With GGGAUUUCGAGAGACUAGCTT against AA959601, the z-score was inactive: 0.955.

On to GGAAAACUGGACAGAAAAUTT against Ndufb4, for which the z-score is inactive: 0.653.

Take GCUUUUGCCAAGCAUAAUATT against Crot: the z-score is inactive: 1.09.

As for CCAUUCAGAUCCUCUUCACTT against Olfr48, the z-score was inactive: -0.0453.

GGAAGCGUAGUAAAAAGAGTT against MGC28180: the z-score was inactive: -0.738.

Consider CCUAGCCAGCUAUGAUGUCTT against Mcoln1, for which the z-score is inactive: 0.655.

Regarding GCCAAGUUUGAACUUCGGATT against Elovl6, the z-score is inactive: 0.772.

Turning to GGACAAGGAAUUAGGAGGATT against LOC626846, the z-score was inactive: 1.15.

As to “GGAUCGUCUCCAAGUGGAUTT against 9130416B15”, the z-score is inactive: 0.617.

Take GGAGACUUUGAAAAAAGACTT against Mrps31: the z-score was inactive: -0.322.

Regarding GCUGAUUUCCAAAGAUAAUTT against Glycam1, the z-score was inactive: 0.301.

Consider GCAACGACUCUAAUGACUUTT against Slc38a1, for which the z-score is inactive: -1.22.
